Reference: patent publication US20190125669A1, “SYSTEMS AND METHODS FOR STEROIDAL GELS” (Children's Medical Center Corporation, priority 2016, published 2019)

Details: DexP:Ca^2+=1:1

- Critical gelation concentration (lowest concentration of DexP which leads to a stable gel): ~10 mM
SMILES: C[C@@H]1C[C@H]2[C@@H]3CCC4=CC(=O)C=C[C@]4(C)[C@@]3(F)[C@@H](O)C[C@]2(C)[C@@]1(O)C(=O)COP(=O)(O)O [Dexamethasone phosphate, dexamethasone phosphate disodium]
